Test results from the supplement of paper PMC11732987, “Enantioselective OTUD7B fragment discovery through chemoproteomics screening and high-throughput optimisation” (Communications Chemistry, 2025).
The other results are listed elsewhere or left out. The data scatter; read single values as rough.

Chains of the proteins cited; added tags and fusions are not shown. Lines headed by an entry give the natural chain unless they say otherwise; changes in a name come on top. Residues count along the entry.
UniProt Q5VWN6, 1038-1058: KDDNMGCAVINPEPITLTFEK
UniProt Q6NXT6: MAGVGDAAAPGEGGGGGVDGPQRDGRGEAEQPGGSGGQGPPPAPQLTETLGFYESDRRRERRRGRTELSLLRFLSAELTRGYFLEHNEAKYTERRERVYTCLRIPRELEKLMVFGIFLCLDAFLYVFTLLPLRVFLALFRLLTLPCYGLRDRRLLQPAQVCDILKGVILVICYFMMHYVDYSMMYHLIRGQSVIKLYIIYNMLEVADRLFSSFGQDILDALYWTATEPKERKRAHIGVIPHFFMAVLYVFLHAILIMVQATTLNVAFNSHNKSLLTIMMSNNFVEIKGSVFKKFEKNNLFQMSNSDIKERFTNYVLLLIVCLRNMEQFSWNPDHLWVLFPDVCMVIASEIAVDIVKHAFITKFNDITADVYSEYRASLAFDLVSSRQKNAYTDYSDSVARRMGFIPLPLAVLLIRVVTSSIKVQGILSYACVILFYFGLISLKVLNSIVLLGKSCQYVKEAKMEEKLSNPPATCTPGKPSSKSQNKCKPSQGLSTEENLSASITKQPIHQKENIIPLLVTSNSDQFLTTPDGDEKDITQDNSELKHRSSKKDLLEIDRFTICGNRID
UniProt Q03519, whole entry, looked up: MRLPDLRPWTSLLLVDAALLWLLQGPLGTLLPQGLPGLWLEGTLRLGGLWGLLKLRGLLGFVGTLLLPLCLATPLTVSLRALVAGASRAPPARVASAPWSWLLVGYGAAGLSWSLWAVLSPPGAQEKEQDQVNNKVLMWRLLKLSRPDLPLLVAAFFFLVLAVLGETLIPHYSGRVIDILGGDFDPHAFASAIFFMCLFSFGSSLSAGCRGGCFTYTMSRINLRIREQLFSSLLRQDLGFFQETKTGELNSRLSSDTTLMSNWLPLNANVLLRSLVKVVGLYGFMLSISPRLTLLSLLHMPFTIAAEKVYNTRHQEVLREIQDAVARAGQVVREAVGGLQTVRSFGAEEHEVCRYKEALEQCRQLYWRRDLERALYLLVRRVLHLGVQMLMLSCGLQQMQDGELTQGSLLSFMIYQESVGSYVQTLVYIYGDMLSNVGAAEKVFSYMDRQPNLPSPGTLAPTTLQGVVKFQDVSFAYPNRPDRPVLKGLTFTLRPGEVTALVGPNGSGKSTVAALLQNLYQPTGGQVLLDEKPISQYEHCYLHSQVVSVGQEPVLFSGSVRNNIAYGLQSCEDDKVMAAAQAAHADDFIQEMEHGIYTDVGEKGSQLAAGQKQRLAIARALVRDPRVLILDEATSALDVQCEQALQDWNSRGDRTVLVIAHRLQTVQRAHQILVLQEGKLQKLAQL
UniProt Q9NVG8: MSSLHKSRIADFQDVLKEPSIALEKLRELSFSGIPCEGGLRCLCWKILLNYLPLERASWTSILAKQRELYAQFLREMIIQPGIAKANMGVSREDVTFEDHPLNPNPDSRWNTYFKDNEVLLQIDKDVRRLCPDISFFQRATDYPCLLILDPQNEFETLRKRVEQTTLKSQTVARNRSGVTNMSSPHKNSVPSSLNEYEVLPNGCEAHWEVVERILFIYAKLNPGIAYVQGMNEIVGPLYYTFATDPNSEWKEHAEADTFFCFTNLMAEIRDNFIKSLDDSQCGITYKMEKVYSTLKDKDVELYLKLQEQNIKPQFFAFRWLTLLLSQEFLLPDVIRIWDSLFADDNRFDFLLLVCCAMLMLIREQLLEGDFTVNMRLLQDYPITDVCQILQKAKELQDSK
UniProt Q03167, 819-851: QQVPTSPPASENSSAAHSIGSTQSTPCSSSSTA
UniProt Q8WVM0: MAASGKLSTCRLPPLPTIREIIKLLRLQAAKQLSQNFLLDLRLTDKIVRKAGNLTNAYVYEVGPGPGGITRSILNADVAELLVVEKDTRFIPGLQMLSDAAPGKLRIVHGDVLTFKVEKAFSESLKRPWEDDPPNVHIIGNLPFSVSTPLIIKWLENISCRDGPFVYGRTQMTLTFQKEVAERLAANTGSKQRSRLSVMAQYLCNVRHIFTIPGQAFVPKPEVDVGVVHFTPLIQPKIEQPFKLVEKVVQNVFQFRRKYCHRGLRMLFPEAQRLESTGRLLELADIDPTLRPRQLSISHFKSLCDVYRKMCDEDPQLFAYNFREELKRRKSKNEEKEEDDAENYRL
UniProt Q0IIM8: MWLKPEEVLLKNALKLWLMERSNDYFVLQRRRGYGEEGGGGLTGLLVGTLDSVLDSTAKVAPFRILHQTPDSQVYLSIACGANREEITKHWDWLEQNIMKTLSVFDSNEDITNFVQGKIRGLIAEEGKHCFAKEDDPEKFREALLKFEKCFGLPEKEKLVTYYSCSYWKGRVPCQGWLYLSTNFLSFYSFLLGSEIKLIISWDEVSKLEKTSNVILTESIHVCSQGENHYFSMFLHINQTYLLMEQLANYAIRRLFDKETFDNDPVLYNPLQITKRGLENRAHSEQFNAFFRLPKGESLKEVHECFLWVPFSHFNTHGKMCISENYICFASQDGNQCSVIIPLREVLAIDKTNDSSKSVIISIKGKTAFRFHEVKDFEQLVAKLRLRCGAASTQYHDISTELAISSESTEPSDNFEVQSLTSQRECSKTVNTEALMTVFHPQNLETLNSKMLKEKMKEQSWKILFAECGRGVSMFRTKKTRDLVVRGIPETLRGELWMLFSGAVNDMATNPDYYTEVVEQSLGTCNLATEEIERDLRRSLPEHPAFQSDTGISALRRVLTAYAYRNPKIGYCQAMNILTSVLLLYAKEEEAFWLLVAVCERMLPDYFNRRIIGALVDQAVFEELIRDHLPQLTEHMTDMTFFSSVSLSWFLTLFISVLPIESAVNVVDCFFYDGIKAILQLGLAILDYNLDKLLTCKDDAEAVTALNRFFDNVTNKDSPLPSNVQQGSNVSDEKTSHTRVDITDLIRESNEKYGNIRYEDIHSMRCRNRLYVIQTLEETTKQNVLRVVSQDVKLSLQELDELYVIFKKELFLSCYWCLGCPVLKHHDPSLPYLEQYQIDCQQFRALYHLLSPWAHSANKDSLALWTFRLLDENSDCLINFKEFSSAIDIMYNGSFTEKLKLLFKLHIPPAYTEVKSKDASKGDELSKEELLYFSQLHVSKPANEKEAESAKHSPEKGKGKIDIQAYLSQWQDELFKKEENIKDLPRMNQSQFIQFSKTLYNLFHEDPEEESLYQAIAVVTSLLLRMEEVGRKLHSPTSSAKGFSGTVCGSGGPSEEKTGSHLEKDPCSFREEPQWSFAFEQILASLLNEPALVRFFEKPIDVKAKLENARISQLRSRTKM
UniProt Q9UK61: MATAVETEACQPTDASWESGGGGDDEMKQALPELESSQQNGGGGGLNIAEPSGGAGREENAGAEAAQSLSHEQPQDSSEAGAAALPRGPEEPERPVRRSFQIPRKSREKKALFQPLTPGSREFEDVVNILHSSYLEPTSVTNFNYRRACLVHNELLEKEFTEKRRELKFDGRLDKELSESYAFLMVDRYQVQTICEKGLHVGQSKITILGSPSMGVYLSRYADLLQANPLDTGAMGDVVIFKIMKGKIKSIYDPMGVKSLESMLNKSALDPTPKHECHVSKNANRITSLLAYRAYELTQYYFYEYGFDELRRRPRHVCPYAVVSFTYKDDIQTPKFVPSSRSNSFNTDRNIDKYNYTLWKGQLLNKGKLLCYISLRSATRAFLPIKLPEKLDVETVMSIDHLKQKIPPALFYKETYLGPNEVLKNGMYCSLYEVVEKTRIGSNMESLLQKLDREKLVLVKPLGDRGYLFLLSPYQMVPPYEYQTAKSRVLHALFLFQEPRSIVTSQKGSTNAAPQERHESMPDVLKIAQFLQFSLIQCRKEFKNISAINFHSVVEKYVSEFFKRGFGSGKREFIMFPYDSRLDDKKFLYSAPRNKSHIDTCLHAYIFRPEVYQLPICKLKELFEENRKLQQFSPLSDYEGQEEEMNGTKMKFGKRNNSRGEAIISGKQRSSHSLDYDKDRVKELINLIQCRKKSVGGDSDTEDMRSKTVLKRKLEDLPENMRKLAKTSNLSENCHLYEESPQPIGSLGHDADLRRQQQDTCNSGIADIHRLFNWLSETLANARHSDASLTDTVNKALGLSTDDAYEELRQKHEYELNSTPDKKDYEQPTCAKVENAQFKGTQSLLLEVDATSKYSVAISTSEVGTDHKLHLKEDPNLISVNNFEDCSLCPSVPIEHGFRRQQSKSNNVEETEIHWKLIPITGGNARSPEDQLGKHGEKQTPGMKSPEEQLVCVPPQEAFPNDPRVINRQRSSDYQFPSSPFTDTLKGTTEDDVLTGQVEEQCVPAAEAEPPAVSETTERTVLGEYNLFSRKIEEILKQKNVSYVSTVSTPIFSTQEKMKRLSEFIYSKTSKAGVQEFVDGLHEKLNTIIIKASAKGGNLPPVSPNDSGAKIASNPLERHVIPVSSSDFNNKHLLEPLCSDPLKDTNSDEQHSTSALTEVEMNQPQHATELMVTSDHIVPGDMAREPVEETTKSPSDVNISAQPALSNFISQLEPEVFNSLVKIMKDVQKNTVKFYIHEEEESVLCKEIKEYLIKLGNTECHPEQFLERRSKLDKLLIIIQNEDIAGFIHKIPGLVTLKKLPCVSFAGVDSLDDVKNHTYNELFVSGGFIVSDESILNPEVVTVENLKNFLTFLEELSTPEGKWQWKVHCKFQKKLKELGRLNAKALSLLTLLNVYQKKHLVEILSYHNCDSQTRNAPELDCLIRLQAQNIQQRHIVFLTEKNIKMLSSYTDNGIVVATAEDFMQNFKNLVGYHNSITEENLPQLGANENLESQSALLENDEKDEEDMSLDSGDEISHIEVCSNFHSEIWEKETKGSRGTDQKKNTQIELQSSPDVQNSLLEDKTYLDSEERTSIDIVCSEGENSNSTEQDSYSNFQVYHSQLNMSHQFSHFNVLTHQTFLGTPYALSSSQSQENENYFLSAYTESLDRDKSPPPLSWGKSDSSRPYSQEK
UniProt Q5JUR7: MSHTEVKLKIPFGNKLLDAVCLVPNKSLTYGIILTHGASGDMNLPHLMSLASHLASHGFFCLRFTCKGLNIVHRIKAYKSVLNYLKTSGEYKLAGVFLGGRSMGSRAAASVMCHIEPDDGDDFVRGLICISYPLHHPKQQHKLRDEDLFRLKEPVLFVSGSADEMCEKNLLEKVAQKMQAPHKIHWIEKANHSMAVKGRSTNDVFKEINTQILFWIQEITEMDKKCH
UniProt Q92750: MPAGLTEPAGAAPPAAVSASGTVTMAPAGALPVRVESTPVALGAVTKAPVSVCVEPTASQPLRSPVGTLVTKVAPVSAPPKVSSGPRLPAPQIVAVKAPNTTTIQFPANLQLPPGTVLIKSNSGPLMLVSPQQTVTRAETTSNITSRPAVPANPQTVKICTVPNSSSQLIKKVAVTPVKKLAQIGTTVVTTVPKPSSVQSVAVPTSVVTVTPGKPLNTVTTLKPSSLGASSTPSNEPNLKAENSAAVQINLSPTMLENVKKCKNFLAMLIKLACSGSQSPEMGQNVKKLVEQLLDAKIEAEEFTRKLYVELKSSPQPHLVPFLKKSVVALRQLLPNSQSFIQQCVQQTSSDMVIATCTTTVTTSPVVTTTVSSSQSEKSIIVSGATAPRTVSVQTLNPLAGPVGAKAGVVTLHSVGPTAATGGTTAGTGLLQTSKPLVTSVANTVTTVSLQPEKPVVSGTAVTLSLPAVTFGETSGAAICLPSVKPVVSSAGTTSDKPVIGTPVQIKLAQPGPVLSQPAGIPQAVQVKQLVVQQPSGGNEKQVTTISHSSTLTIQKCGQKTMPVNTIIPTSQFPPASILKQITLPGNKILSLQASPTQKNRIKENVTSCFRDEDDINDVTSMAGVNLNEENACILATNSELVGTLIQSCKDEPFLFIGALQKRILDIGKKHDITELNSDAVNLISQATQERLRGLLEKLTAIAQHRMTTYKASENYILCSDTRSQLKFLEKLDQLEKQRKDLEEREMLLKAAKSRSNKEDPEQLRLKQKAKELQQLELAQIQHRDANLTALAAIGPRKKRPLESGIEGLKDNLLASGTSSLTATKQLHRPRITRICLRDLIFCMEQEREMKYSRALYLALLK
UniProt Q8WUY1: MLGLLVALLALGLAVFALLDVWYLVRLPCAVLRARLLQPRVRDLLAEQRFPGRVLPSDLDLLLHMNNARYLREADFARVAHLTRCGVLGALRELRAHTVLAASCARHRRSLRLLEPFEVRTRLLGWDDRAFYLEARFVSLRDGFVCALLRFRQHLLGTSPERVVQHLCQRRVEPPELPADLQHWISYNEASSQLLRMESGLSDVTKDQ

These targets were tested with ClCC(=O)N[C@@H]1CCCc2ccccc12 (assay: log2 mean competition ratio of IA-DTB cysteine labelling (DMSO/compound) (log2 ratio); higher = stronger cysteine engagement by compound). Conditions: 50 µM; treatment time: 4 h; cell line lysate: HEK293T.
Description: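 IA-DTB competitive cysteine chemoproteomics in HEK293T RIPA lysate. Lysates were treated with compound 29 or 30 at 50 or 200 µM for 4 h, then IA-DTB (500 µM, 1 h), trypsin-digested, NeutrAvidin-enriched and analysed by diaPASEF. Competition ratio = intensity DMSO / intensity compound (n=4 treated, n=64 DMSO); binding: mean log2 CR ≥ 1 and p ≤ 0.05 plus QC filters. Target is the cysteine site.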

Target	log2 mean competition ratio
TASOR2 C1044 (UniProt Q5VWN6)	0.279
TAPT1 C474 (UniProt Q6NXT6)	0.223
TAP2 C362 (UniProt Q03519)	0.0944
THOC5 C608 (UniProt Q13769)	-0.024
TAB3 C590 (UniProt Q8N5C8)	0.242
TBC1D13 C387 (UniProt Q9NVG8)	-0.14
TGFBR3 C845 (UniProt Q03167)	-0.194
TACC3 C662	0.0593
TASOR2 C739 (UniProt Q5VWN6)	-0.474
TFB1M C160 (UniProt Q8WVM0)	-0.00853
TBC1D8B C468 (UniProt Q0IIM8)	0.137
TASOR C1421 (UniProt Q9UK61)	-0.136
TEX30 C21 (UniProt Q5JUR7)	-0.0395
TAF4B C160 (UniProt Q92750)	0.0988
SYT2 C275	0.0464
THEM6 C168 (UniProt Q8WUY1)	0.245
TET2 C353 (UniProt Q6N021)	-0.317
TBC1D32 C825	-0.176
THADA C1585 (UniProt Q6YHU6)	0.267
TET1 C1746 (UniProt Q8NFU7)	-0.0598

Same assay, conditions: 200 µM; treatment time: 4 h; cell line lysate: HEK293T

Target	log2 mean competition ratio
TASOR2 C1044 (UniProt Q5VWN6)	0.687
TAPT1 C474 (UniProt Q6NXT6)	-0.0544
TAP2 C362 (UniProt Q03519)	0.0125
THOC5 C608 (UniProt Q13769)	-0.312
TAB3 C590 (UniProt Q8N5C8)	0.0219
TBC1D13 C387 (UniProt Q9NVG8)	0.0192
TGFBR3 C845 (UniProt Q03167)	-0.346
TACC3 C662	-0.179
TASOR2 C739 (UniProt Q5VWN6)	-0.491
TFB1M C160 (UniProt Q8WVM0)	-0.111
TBC1D8B C468 (UniProt Q0IIM8)	0.00849
TASOR C1421 (UniProt Q9UK61)	-0.0718
TEX30 C21 (UniProt Q5JUR7)	-0.126
TAF4B C160 (UniProt Q92750)	-0.0704
SYT2 C275	0.216
THEM6 C168 (UniProt Q8WUY1)	0.0943
TET2 C353 (UniProt Q6N021)	0.0165
TBC1D32 C825	-0.144
THADA C1585 (UniProt Q6YHU6)	0.146
TET1 C1746 (UniProt Q8NFU7)	-0.186
